Laboratory results from patent US9463252B2, “Auristatin drug linker conjugates” (priority 2008, dated 2016).
Some of these results come from one statement about several compounds together.

Assay: Tolerability (MTD) of conjugates in mice
Assay type: in vivo, mouse
Details: h1F6 conjugates, 4 drug units per antibody, single dose, weight loss no more than 20%
Experimental: The tolerability, measured as maximum tolerated dose (MTD), was determined in mice based on animals' weight loss after treatment. Animals were usually monitored for 14 days. A conjugate is considered to be tolerated at a determined dose if single iv treatment at such dose results in a transient weight loss of no more than 20% of initial body weight of animals and no other signs of toxicity are observed. […] AF-Met-(D)Lys and AF-Asn-(D)Lys conjugates were tolerated at doses as high as 100 mg/kg (FIG. 7). Corresponding conjugates of auristatins containing Methionine (AM) and Tryptophan (AW) at the C-terminal position of the drug were tolerated even better, up to 150 mg/kg (FIG. 8). […] Thus, the Auristatin-Dipeptide Drug Linkers provide ADCs with significant therapeutic window for therapeutic treatment (e.g., cancer).

AF-Asparagine-(D)Lysine-diaminoethane-propionyl maleimide [AF-Asn-(D)Lys]
tolerated dose: ≤ 100 mg/kg
